Source: patent publication US6906179
Results are given in words; binding and its absence hold for the method and conditions named. Some binding calls cover weakened binding; strength is not graded here.

The chains behind the UniProt entries cited, without tags or fusion partners. Where a name states a change or a piece, a line headed by the entry shows the natural chain unless it says otherwise. A line that says so, or that is headed by a name, gives the form on record, which may keep a tag or linker. Residues count along the entry.
UniProt P84022: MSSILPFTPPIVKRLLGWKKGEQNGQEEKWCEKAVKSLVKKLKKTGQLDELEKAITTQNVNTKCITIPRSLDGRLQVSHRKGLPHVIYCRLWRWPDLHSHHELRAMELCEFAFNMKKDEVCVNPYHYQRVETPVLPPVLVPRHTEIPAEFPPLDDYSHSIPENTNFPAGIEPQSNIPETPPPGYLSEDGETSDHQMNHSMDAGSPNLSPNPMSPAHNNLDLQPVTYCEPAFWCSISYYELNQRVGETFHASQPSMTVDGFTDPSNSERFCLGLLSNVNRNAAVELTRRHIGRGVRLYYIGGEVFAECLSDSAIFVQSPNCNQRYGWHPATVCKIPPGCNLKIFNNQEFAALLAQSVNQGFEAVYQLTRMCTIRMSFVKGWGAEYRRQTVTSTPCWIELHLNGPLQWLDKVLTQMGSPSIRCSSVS
UniProt P28070: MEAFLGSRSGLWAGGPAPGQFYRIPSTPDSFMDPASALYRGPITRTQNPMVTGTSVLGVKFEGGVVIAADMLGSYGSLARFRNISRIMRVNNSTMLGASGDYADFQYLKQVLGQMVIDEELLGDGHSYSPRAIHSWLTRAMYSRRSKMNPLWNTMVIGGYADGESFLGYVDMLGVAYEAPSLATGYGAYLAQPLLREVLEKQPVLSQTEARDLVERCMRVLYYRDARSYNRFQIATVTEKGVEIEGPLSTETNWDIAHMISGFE
UniProt P54368, residues 101-228: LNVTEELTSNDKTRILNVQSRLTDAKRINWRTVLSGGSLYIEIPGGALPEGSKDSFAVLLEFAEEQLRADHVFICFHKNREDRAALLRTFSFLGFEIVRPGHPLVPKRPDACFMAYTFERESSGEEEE
UniProt P0A7C2: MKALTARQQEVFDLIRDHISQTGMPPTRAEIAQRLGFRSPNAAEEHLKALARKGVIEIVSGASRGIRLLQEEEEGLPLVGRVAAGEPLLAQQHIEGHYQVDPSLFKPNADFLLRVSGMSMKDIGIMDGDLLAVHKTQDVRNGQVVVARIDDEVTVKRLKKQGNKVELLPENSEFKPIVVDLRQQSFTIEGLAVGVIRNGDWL
UniProt Q15797: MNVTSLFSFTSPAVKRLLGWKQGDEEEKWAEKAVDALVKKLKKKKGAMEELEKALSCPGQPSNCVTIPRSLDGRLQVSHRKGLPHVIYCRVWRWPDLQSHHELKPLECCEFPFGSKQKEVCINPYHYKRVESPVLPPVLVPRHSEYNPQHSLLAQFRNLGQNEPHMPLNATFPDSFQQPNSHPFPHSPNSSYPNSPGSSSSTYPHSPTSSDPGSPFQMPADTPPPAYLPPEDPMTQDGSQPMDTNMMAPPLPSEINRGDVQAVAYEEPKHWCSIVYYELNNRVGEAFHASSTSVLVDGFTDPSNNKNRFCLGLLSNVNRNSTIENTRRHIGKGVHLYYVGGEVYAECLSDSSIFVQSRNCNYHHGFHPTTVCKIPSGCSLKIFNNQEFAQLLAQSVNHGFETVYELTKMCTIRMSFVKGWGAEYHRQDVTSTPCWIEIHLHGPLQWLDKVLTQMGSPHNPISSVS
Hn RNP core protein A1 (P09651, form named): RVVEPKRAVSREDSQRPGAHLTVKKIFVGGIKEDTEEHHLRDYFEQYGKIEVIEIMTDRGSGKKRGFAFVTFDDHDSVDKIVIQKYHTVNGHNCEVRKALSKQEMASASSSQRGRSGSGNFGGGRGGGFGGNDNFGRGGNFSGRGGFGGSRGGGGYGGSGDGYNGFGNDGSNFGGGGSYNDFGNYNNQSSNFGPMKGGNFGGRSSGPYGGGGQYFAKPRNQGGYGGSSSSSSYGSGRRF
UniProt P36897: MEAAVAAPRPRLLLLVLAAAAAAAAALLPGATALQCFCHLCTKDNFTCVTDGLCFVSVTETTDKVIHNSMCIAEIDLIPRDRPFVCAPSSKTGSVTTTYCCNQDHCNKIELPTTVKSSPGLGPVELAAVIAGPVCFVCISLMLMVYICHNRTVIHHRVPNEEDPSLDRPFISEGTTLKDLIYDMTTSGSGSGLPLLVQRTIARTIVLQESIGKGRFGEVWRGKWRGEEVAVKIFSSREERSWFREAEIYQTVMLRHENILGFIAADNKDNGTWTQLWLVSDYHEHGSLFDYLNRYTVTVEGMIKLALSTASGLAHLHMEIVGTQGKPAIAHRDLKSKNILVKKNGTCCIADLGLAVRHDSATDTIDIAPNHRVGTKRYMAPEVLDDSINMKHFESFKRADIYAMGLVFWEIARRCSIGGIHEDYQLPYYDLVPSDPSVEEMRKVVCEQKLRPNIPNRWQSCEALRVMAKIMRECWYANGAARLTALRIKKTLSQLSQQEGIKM
UniProt Q13485, residues 323-552: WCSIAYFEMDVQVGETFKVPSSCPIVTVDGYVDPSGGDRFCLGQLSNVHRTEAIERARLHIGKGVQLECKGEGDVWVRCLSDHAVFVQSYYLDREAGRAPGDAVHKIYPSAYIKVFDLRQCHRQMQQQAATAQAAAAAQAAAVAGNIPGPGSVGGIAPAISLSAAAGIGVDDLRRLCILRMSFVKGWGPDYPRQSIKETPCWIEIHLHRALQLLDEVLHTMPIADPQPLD
UniProt P09234: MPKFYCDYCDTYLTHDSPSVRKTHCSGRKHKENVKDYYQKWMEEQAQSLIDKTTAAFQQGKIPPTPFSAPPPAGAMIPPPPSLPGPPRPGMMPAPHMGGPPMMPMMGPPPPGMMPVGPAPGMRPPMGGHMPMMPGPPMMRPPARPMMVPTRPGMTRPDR
UniProt P06733, residues 230-434: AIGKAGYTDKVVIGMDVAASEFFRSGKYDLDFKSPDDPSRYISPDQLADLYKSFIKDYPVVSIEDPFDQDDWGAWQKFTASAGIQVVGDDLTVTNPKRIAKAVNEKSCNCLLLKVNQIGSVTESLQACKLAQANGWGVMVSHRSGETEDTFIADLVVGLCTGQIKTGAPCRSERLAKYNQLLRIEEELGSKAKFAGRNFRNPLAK

Tests used:
Smad3 [1] = target: Smad3 (UniProt P84022); experiment: yeast two-hybrid; list of Smad3 interactors
HsN3 (human) [2] = target: HsN3 (human) (UniProt P28070); experiment: list of HsN3 interactors; method not detailed
ornithine decarboxylase = target: T1, ornithine decarboxylase (UniProt P11926); experiment: yeast two-hybrid
T1 sequence (looked up): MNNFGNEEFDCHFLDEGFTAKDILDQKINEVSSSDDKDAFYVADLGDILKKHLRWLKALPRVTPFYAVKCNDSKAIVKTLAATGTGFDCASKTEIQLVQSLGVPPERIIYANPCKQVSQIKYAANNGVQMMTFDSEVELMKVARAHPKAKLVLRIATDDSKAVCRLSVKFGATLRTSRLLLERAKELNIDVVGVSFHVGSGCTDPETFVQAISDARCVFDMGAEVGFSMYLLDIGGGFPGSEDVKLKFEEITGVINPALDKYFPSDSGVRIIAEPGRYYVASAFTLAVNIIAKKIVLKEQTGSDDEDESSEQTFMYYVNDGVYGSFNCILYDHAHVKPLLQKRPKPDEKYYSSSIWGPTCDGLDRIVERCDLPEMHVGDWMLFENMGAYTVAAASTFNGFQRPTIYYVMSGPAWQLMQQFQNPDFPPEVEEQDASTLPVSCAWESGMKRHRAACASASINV

HsN3 (human) [3] = target: HsN3 (human) (UniProt P28070); experiment: method not detailed
antizyme (human) = antizyme (human) (UniProt P54368); experiment: list of antizyme interactors; yeast two-hybrid (FIG. 30)
Smad3 [4] = target: Smad3 (UniProt P84022); experiment: mammalian cells (data not shown)
[5] = target: LexA-Smad1 (full length Smad1 fused in frame to the LexA DNA binding domain (1-202) in pEG202) (UniProt P0A7C2); experiment: yeast two-hybrid; list of Smad1 interactors
[6] = target: LexA-Smad1 (full length Smad1 fused in frame to the LexA DNA binding domain (1-202) in pEG202) (UniProt P0A7C2); experiment: yeast two-hybrid screen, LexA-Smad1 bait

Row | binding (Smad3 [1]) | binding (HsN3 (human) [2]) | binding [5] | Substance | also measured
1 | binds |  |  | Smad1 (from UniProt Q15797 1-465) | 
2 | binds |  |  | Hn RNP core protein A1 (from UniProt P09651 82-320) | 
3 |  |  | binds | Smad3 (from UniProt P84022 1-425) | 
4 |  | binds |  | The complex of type I and type II receptors of TGF-β (from UniProt P36897 34-503; P37173 23-567) | 

Continued, substance first:

Row | Substance | binding (Smad3 [1]) | binding (HsN3 (human) [2]) | binding [5] | also measured
5 | Smad4 MH2 domain (from UniProt Q13485 323-552) |  | binds |  | 
6 | antizyme (from UniProt P54368 101-228) | binds | binds | binds | binding (ornithine decarboxylase): binds; binding (HsN3 (human) [3]): binds; binding (antizyme (human)): binds; binding (Smad3 [4]): binds; binding [6]: binds
7 | U1 SnRNP C (from UniProt P09234 1-159) | binds |  | binds | 
8 | Smad3C (aa 231-424) (from UniProt P84022 231-424) |  | binds |  | 
9 | enolase, clones S1+14 and S1+37 (from UniProt P06733 230-434) (enzyme) |  | binds | binds | binding (antizyme (human)): binds
